The assay can be described thus: qHTS Assay for Lipid Storage Modulators in Drosophila S3 Cells.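 As to cell number change: cells counted by Cell Tracker Red CMTPX staining in the red channel.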 The note with it: BODIPY lipid droplet fluorescence, 18-24 h; for cell number change: measured here: cell count max response, cells fed with added oleic acid. In a few lines: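 Laser-scanning cytometry quantifies lipid droplet accumulation (500–530 nm total intensity; droplet/cell object ratio) in oleic acid-fed (400 uM added) Drosophila S3 cells treated with a concentration series. 20 uM Triacsin C defined 100% inhibition.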

[1] abbreviates: measured here: cell number channel AC50, cells fed with added oleic acid.
Setting [2] is: measured here: lipid fluorescence (Fed channel) AC50, cells fed with added oleic acid.

The list shows a part of the results. These are further read-outs of the screen, such as a control signal, another cell line or another target. No call is given for them. Most of these compounds were active or inconclusive in the main read-out, so they are no random draw. Potencies come from curve fits of mixed quality, noted in brackets.

What is called AC50 is the midpoint of the concentration-response curve, whichever way the signal moves. The low end stands for activity at low concentration, the high end for activity only at high concentration.

In the case of `O=C(c1ccccc1CCc1ccccc1)N1CCOCC1`, the AC50 runs as follows: under setting [1], 0.651 µM [falling, partial curve]; under setting [2], 0.259 µM [falling, partial curve, poor fit].
Turning to `COCCCn1c(SCC(=O)Nc2sc3c(c2C#N)CCCC3)nnc1-c1ccncc1`, the cell number change was 9.61%. Also, the AC50 under setting [2] was 0.082 µM [rising, full curve, poor fit].
`CC(C(=O)Nc1ccc2c(c1)OCCO2)c1ccc([N+](=O)[O-])cc1` (stereo unspecified): the cell number change was 2.9%. Under setting [2], the AC50 is 0.58 µM [falling, single point].
As for `CCOc1ccc(NC(=O)CN(C)C(=O)CN2C(=O)C3CCCCC3C2=O)cc1OCC` (stereo unspecified), the cell number change is -0.775%. Further, under setting [2], the AC50 was 0.461 µM [rising, full curve, poor fit].
Consider `C=CCSc1nnc(CCCCCN2C(=O)c3cccc4cccc(c34)C2=O)o1`, for which the cell number change is -7.27%.
In the case of `CC1(C)Cc2c(C#N)c(N)sc(=S)c2CO1`, the cell number change was -1.85%. Moreover, the AC50 under setting [1] is 1.03 µM [rising, full curve]. Also, the AC50 under setting [2] is 0.103 µM [rising, full curve, poor fit].
Regarding `O=C(NCc1ccccc1)NC1(C(=O)N2CCN(c3ccccc3)CC2)CCCCC1`, the cell number change is -15.5%. The AC50 under setting [2] was 0.0461 µM [falling, partial curve, poor fit].
Turning to `Cc1ccc(OCC(=O)N2CCC(C)CC2)c([N+](=O)[O-])n1`, the cell number change was 35.9%. The AC50 under setting [1] is 32.6 µM [rising, single point]. Under setting [2], the AC50 was 23.1 µM [rising, single point].
With `O=C(CSc1ccncc1)Nc1ccc(S(=O)(=O)Nc2nccs2)cc1`, the cell number change turned out to be 90.1%. Further, the AC50 under setting [1] is 18.4 µM [rising, single point]. Moreover, under setting [2], the AC50 is 18.4 µM [rising, partial curve].
On to `Cc1nnc(-c2ccccc2)c(=O)n1/N=C/c1c(O)ccc2ccccc12`, for which the cell number change is 4.75%.
`CCOc1ccccc1N1CCN(Cc2cn[nH]c2-c2ccc(F)cc2)CC1`: the cell number change is -23.5%. The AC50 under setting [2] is 11.6 µM [falling, partial curve].
Consider `COc1ccc(C2=NOC(C(=O)Nc3cc(C)on3)C2)cc1OC` (stereo unspecified), for which the cell number change stood at 47.3%. Further, the AC50 under setting [1] is 0.291 µM [rising, full curve, poor fit]. Also, under setting [2], the AC50 is 6.51 µM [rising, partial curve, poor fit].
`N#Cc1nc(-c2ccccc2Cl)oc1N1CCCCC1`: the cell number change was -10.5%. Besides, under setting [2], the AC50 was 2.91 µM [rising, full curve, poor fit].
As to `COc1cccc(C2=CC(c3ccc(N(C)C)cc3)n3ncnc3N2)c1` (stereo unspecified), the cell number change is -11.8%. Also, the AC50 under setting [2] is 2.31 µM [rising, full curve, poor fit].
As to `CC(C)c1[nH]c(=O)c(C#N)c2c1COC(C)(C)C2`, the cell number change was -69.9%. Also, the AC50 under setting [1] is 29.1 µM [falling, single point]. Besides, under setting [2], the AC50 was 23.1 µM [falling, single point].
As for `Cc1nn(Cc2ccc(Cl)cc2)c(C)c1NC(=O)C(c1ccccc1)c1ccccc1`, the concentration at half-maximal activity (AC50) under setting [2] is 16.4 µM [falling, partial curve].
As to `COc1ccccc1CCNC(=O)C1CCCO1` (stereo unspecified), the cell number change worked out at 2.58%.
On to `CCOC(=O)c1ccc(N2C(=O)c3n[nH]c(C)c3C2c2ccco2)cc1` (stereo unspecified), for which the cell number change was 39.2%. Besides, the AC50 under setting [1] is 0.82 µM [rising, full curve, poor fit]. Under setting [2], the AC50 is 1.46 µM [rising, partial curve].
As to `Cc1ccc(NC(=O)Cn2cc(C(=O)C3CC3)c3ccccc32)cc1`, the cell number change was determined as 186%. Also, the AC50 under setting [1] is 29.1 µM [rising, single point].
In the case of `CCN(CC)CCN1C(=O)C(O)=C(C(=O)c2cccs2)C1c1ccc(C)o1` (stereo unspecified), the cell number change came out at 4.7%. Also, the AC50 under setting [1] is 1.16 µM [falling, full curve, poor fit].
Turning to `Cc1ccc(C(=O)NNC(=O)c2csc(N3CCOCC3)n2)s1`, the cell number change was determined as 9.12%. The AC50 under setting [2] is 6.51 µM [rising, single point].
Turning to `COc1cc(/C=C/C(=O)c2ccc(NS(=O)(=O)c3ccc(C)cc3)cc2)ccc1OC(F)F`, under setting [2], the AC50 is 6.51 µM [rising, single point].
For the compound `CCC(=O)c1ccc(OCC(O)CN2CCN(c3ccccn3)CC2)cc1` (stereo unspecified), the cell number change is 28.4%. In addition, the AC50 under setting [1] was 0.103 µM [rising, full curve, poor fit].
`O=C(Nc1ccccc1C(F)(F)F)c1ccsc1`: the cell number change was 18.1%.
With `Cc1cc(C(=O)OCC(=O)NC2(C#N)CCCCC2)c(C)o1`, the AC50 under setting [2] is 23.1 µM [rising, partial curve, poor fit].
Turning to `COCCCNC(=O)CN(CCc1ccccc1)S(=O)(=O)c1ccccc1`, the cell number change amounted to 122%. Also, the AC50 under setting [1] was 3.66 µM [falling, single point]. The AC50 under setting [2] was 29.1 µM [rising, single point].
Take `C/C(=N\NC(=O)c1ccccc1)c1c(C)[nH]n(-c2ccccc2)c1=O`: the cell number change was -12.1%.
In the case of `CC(C)(C)NC(=O)c1ccc(NC(=O)c2ccccc2-c2ccccc2C(=O)O)cc1`, the cell number change is 31.2%. Besides, under setting [1], the AC50 is 1.03 µM [rising, full curve, poor fit]. Moreover, the AC50 under setting [2] was 29.1 µM [rising, single point].
With `CCN(CC)P(=O)(C(NC(=O)OC)C(F)(F)C(F)(F)C(F)(F)C(F)F)N(CC)CC` (stereo unspecified), the cell number change was 77.6%.
Regarding `CCC(C)NC(=O)C(CCSC)NC(=O)c1ccccc1` (stereo unspecified), the cell number change was -38%. The half-maximal activity concentration (AC50) under setting [1] is 4.11 µM [falling, full curve, poor fit]. In addition, the AC50 under setting [2] was 13 µM [falling, partial curve].
As to `CCOc1cc2[nH]c(=O)n(Cc3ccc(C(=O)NCCCN4CCCC4=O)cc3)c(=O)c2cc1OCC`, the cell number change was -16.3%.
In the case of `COc1ccc(-n2c(=O)cc(N3CCN(c4ccccc4OC)CC3)[nH]c2=O)cc1`, the cell number change is 0.539%.
As to `O=C(c1ccc2nc(N3CCCCC3)sc2c1)N1CCN(c2ccccn2)CC1`, the cell number change worked out at 85.7%. Under setting [1], the AC50 was 4.11 µM [rising, full curve]. Besides, under setting [2], the concentration at half-maximal activity (AC50) is 2.31 µM [rising, full curve].
As for `O=C(CSc1ncnc2nc[nH]c12)Nc1nnc(SCc2ccc(Cl)c(Cl)c2)s1`, the cell number change is -9.55%.
`Cc1ccc(-n2ncc3c2CCCC3NC(=O)CCCN2CCCCC2=O)cc1C` (stereo unspecified): the cell number change was -10.8%. Besides, the AC50 under setting [2] was 0.164 µM [rising, full curve, poor fit].
For `O=C(Nc1cccc(NC(=O)c2cccs2)c1)c1ccc(Br)cc1`, the cell number change came to 6.82%. Besides, under setting [2], the AC50 is 8.2 µM [falling, partial curve].
Turning to `CN1CCN(C(=O)CCN2C(=O)S/C(=C/c3ccc(Cl)cc3)C2=O)CC1`, the cell number change came out at 135%. Moreover, the concentration at half-maximal activity (AC50) under setting [1] is 29.1 µM [rising, single point].
For `COc1ccc(-c2nc3n(n2)C(c2ccccc2Cl)C(C(N)=O)=C(C)N3)cc1` (stereo unspecified), the cell number change stood at 32.1%. In addition, the AC50 under setting [1] is 2.31 µM [rising, partial curve, poor fit]. Besides, under setting [2], the AC50 was 0.731 µM [falling, single point].
Regarding `O=C(NCC(=O)N(c1cccc(F)c1)C(C(=O)NC1CCCC1)c1cccnc1)c1ccco1` (stereo unspecified), the cell number change was determined as 12.9%.
Consider `CCOc1ccccc1OCCn1nnc2ccccc21`, for which the AC50 under setting [2] was 0.58 µM [rising, single point].
Take `CC(C)C(=O)Nc1cccc(-c2nc3ncccc3o2)c1`: the cell number change was -8.5%.
In the case of `CCOC(=O)[C@H]1[C@H]2COc3ccc(OC)cc3[C@@H]2N2C(=O)CN(Cc3ccc(OC)cc3)C(=O)[C@@]12C`, the cell number change is -11.1%.
`Cc1ccc(C(=O)NCCc2cccc(Cl)c2)cc1[N+](=O)[O-]`: the cell number change came to 6.04%. For the same compound, the AC50 under setting [2] is 5.8 µM [rising, partial curve].
On to `CC(=O)Nc1c2c(nn1-c1ccc(C)cc1C)CS(=O)C2` (stereo unspecified), for which the cell number change came out at 20.7%. For the same compound, under setting [1], the AC50 was 0.517 µM [rising, full curve, poor fit]. The half-maximal activity concentration (AC50) under setting [2] is 29.1 µM [falling, single point].
As for `CCOc1ccc(-n2c(SC(C)C)nc3c(c2=O)SCC3)cc1`, the cell number change is -26.3%. Further, the AC50 under setting [2] was 0.058 µM [falling, full curve, poor fit].
Consider `COc1cc(C(=O)NC(=S)Nc2ccc(N3CCCC3)cc2)cc(OC)c1OC`, for which the cell number change is -31.8%. Moreover, the AC50 under setting [1] is 2.06 µM [falling, full curve]. Besides, the concentration at half-maximal activity (AC50) under setting [2] was 3.66 µM [falling, full curve].
For `CCOc1ccc(C(C)=O)cc1N1C(=O)C2C3C=CC(O3)C2C1=O` (stereo unspecified), the cell number change was -72.5%. Further, the AC50 under setting [1] was 29.1 µM [falling, single point]. In addition, the AC50 under setting [2] was 29.1 µM [falling, single point].
As to `COc1ccc(C)cc1NC(=O)Nc1ccc2c(c1)CCC2`, the cell number change was 2.55%. Further, under setting [2], the AC50 was 29.1 µM [falling, single point].
With `CCN(CC)CCN1C(=O)C(=O)/C(=C(/O)c2cnn(-c3ccccc3)c2C)C1c1ccc(C)o1` (stereo unspecified), the cell number change was 13.5%. Moreover, under setting [2], the AC50 was 10.3 µM [rising, partial curve, poor fit].
For the compound `Cc1ccc(S(=O)(=O)N(C)CC(=O)N/N=C/c2ccc(C)o2)cc1`, the cell number change is 12.6%. Also, the half-maximal activity concentration (AC50) under setting [2] was 0.731 µM [rising, full curve, poor fit].
For the compound `CC(C(=O)Nc1nc(-c2ccc(F)cc2)cs1)N1C(=O)C2CC=CCC2C1=O` (stereo unspecified), the cell number change was -41.8%. Besides, under setting [1], the AC50 was 16.4 µM [falling, partial curve].
Take `Cc1nc2sc(C(c3ccco3)N3CC(C)OC(C)C3)c(O)n2n1` (stereo unspecified): the cell number change was 20.4%. Under setting [2], the concentration at half-maximal activity (AC50) is 2.31 µM [rising, full curve].
Regarding `Cc1ccc(-n2c(C)cc(/C=C3\SC(=O)NC3=O)c2C)cc1`, the cell number change is 2.7%. Besides, the AC50 under setting [2] was 4.61 µM [falling, partial curve].
In the case of `CCSc1nc2ccccc2c(=O)n1-c1c(C)n(C)n(-c2ccccc2)c1=O`, the cell number change was -13.8%. The AC50 under setting [1] is 0.0651 µM [falling, full curve, poor fit]. For the same compound, the AC50 under setting [2] is 23.1 µM [falling, single point].
For the compound `COc1ccc(C(CC(=O)O)NC(=O)c2ccccc2)cc1OC` (stereo unspecified), the cell number change is -36.2%. Besides, under setting [1], the AC50 was 0.259 µM [falling, full curve]. In addition, the AC50 under setting [2] was 29.1 µM [falling, single point].
Regarding `Cc1cccc(CN(C)CCc2ccccn2)c1`, the cell number change is -0.149%. Also, under setting [1], the half-maximal activity concentration (AC50) was 0.13 µM [falling, full curve, poor fit].
Consider `NNc1nc(-c2ccccc2)cc(-c2ccccc2)n1`, for which the cell number change is -24.7%. Also, the AC50 under setting [2] is 20.6 µM [falling, single point].
As to `Cc1ccnc(NC(=O)CN2C(=O)c3ccccc3S2(=O)=O)c1`, the cell number change came to 47.8%. Also, under setting [1], the AC50 is 10.3 µM [rising, partial curve].
